Source: PubChem BioAssay AID2549 (National Center for Advancing Translational Sciences (NCATS), 2010)
Screen size: about 240,000 compounds; about 1,300 (0.54%) were called active. Inconclusive results, whose numbers are uncertain, are shown with a selection of clear calls. The call rests on the fitted dose curve; in most records, active means well fitted inhibition curve with a large enough effect; inconclusive means small, poorly fitted or top-dose-only effect; inactive means flat fitted curve, though single readings scatter. A potency beside an inconclusive call is a rough fit, not a confirmed value.

Amino acid sequences for entries named in this document (tags omitted). A change or cut given only in a name is not applied to a line headed by its entry.
UniProt P46063: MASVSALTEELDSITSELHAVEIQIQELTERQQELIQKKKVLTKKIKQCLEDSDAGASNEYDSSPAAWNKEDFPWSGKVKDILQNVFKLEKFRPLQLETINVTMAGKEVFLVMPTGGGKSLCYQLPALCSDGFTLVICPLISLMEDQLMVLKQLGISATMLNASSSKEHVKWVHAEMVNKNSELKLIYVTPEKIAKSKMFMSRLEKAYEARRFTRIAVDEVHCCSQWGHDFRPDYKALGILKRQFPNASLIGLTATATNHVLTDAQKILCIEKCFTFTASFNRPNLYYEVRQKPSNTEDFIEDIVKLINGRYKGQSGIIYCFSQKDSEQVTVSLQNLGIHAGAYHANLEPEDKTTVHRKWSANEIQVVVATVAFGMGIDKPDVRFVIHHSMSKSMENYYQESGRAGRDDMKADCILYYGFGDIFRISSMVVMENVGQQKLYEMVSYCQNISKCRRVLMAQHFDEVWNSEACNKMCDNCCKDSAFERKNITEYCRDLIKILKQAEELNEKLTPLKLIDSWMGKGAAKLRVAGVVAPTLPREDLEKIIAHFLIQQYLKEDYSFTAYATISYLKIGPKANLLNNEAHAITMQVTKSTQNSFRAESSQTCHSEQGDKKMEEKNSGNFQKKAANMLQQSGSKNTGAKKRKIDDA

Target: ATP-dependent DNA helicase Q1 (Homo sapiens) (UniProt P46063)
Assay: qHTS Assay for Inhibitors of RecQ-Like Dna Helicase 1 (RECQ1); further: nearly all actives have a fitted effect of over 30% in size
Details: RECQ1 DNA unwinding, red fluorescence kinetic read; series mostly up to 57.3 µM
In short: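 50 nM RECQ1T1 preincubated 15 min with compound in Tris pH 8.0 buffer with MgCl2, DTT, Tween-20 and 2.5 ug/ml poly(dI-dC); started with 200 nM TAMRA/BHQ-2 forked duplex and 2 mM ATP. Unwinding read as fluorescence (525/598 nm), two reads 2 h apart.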
Potency means the concentration at half of the fitted maximal effect.

Row | SMILES | Potency
1 | C=CCn1c(NS(=O)(=O)c2ccccc2)c(S(=O)(=O)c2ccc(C)cc2)c2nc3ccccc3nc21 | inactive
2 | CN(C)/C=C(/C#N)C(=O)c1cccc(Oc2ccc(C(C)(C)C)cc2)c1 | inconclusive: 0.178 µM [inhibitor, full curve, poor fit]
3 | COc1ccccc1CNc1nc(-c2ccc(N(C)C)cc2)nc2ccccc12 | inconclusive: 35.5 µM [inhibitor, single point]
4 | Cc1c(-n2c(SC(C)C(=O)NC(N)=O)nc3ccccc3c2=O)c(=O)n(-c2ccccc2)n1C (centres undefined) | inactive
5 | CS(=O)(=O)Nc1ccc(C(=O)N2CCN(c3ccccc3)CC2)cc1 | inconclusive: 0.158 µM [inhibitor, full curve, poor fit]
6 | CCC(=O)O[C@H]1C(O[C@@H]2C(C)[C@H](O[C@H]3C[C@@](C)(OC)C(O)C(C)O3)C(C)C(=O)OC(CC)[C@@](C)(O)C(O)[C@H](C)C(=O)C(C)C[C@]2(C)O)OC(C)CC1N(C)C (some centres undefined) | active: 11.2 µM
7 | COc1cc(NC(=O)c2ccccc2NS(=O)(=O)c2ccc(Cl)s2)cc(OC)c1 | inconclusive: 35.5 µM [inhibitor, single point]
8 | Cc1cc(-c2sccc2C)nc(-n2cccc2)n1 | inconclusive: 28.2 µM [inhibitor, partial curve]
9 | O=C(O)C[C@@H]1C(=O)O[C@@H]2C(COC(=O)c3cc(O)c(O)c(O)c3)O[C@@H](OC(=O)c3cc(O)c(O)c(O)c3)[C@@H](OC(=O)c3cc(O)c(O)c4c3[C@H]1[C@H](O)C(=O)O4)[C@H]2OC(=O)c1cc(O)c(O)c(O)c1 (some centres undefined) | active: 0.112 µM
10 | O=P(O)(O)C(O)c1ccc2ccccc2c1 (centres undefined) | inactive
11 | O=C1/C(=C\c2ccc(O)c(O)c2)Oc2cc(O)ccc21 | active: 20 µM
12 | COC(=O)C1=CC(C(=O)c2cccs2)=NN(c2ccc(OC)cc2)C1C(=O)OC (centres undefined) | inconclusive: 31.6 µM [inhibitor, single point]
13 | N#Cc1c(-c2cccs2)nc(SCC(=O)c2ccc(Br)cc2)[nH]c1=O | inconclusive: 35.5 µM [inhibitor, single point]
14 | COC(=O)C1=C(C)OC(N)=C(C#N)C1c1c(C)nn(-c2ccccc2)c1Cl (centres undefined) | inconclusive: 39.8 µM [inhibitor, single point]
15 | Cc1cc(C=O)c(C)n1-c1ccc(Cl)c(C(=O)O)c1 | active: 28.2 µM
16 | CC(=O)/C(=C\c1ccccc1)CC(=O)O | inconclusive: 39.8 µM [inhibitor, single point]
17 | Cc1cc2cc(CNS(=O)(=O)c3ccccc3)ccc2n1C | inconclusive: 39.8 µM [inhibitor, single point]
18 | CC(CN(C)C)CN1c2ccccc2CCc2ccccc21 (centres undefined) | inconclusive: 3.16 µM [inhibitor, single point]
19 | CCOc1cccc(=O)c2c(C)n(-c3ccc(C(=O)O)cc3)c(C)c12 | inconclusive: 35.5 µM [inhibitor, single point]
20 | COCCNC(=O)/C(C#N)=C/c1ccccc1Br | inactive
21 | COc1cc(/C=N/NC(=O)c2ccc(CSc3nc4ccccc4[nH]3)cc2)ccc1O | inconclusive: 1 µM [inhibitor, full curve, poor fit]
22 | CCOc1ccccc1N1C(=O)CC(Nc2ccc(N3CCOCC3)cc2)C1=O (centres undefined) | inactive

A draw from above in order of molar mass, falling:
Row | SMILES | Potency
1 | C=CCn1c(NS(=O)(=O)c2ccccc2)c(S(=O)(=O)c2ccc(C)cc2)c2nc3ccccc3nc21 | inactive
22 | CCOc1ccccc1N1C(=O)CC(Nc2ccc(N3CCOCC3)cc2)C1=O (centres undefined) | inactive
17 | Cc1cc2cc(CNS(=O)(=O)c3ccccc3)ccc2n1C | inconclusive: 39.8 µM [inhibitor, single point]

The listing continues.

Row | SMILES | Potency
23 | C=C(C(C)=O)C(O)c1ccco1 (centres undefined) | inactive
24 | O=C(N/N=C/c1sc(N2CCOCC2)nc1-c1ccccc1)c1ccc(O)cc1 | inconclusive: 39.8 µM [inhibitor, single point]
25 | CNC(=S)N1N=C(c2ccc(C)cc2)CC1c1cc(OC)ccc1OC (centres undefined) | inconclusive: 35.5 µM [inhibitor, single point]
26 | O=C(CCOc1ccccc1)NCc1ccccc1 | inconclusive: 3.98 µM [inhibitor, full curve]
27 | Cc1cccc(NC(=O)C2C(c3ccccc3)C2(Cl)Cl)c1 (centres undefined) | inconclusive: 31.6 µM [inhibitor, single point]
28 | Cc1ccc(CNC(=O)c2ccc(-n3cccc3)cc2)cc1 | inconclusive: 35.5 µM [inhibitor, single point]
29 | COC(=O)COc1ccc(C2Nc3c(Cl)ccc(C(=O)O)c3C3C=CCC32)cc1 (centres undefined) | active: 28.2 µM
30 | CCN(CC)S(=O)(=O)c1ccc(N/N=C/c2ccc(O)cc2)nc1 | inactive
31 | COc1ccc(NS(=O)(=O)c2cc(NC(=O)c3cc(F)c(F)c(F)c3F)ccc2N2CCCC2)cc1 | inconclusive: 8.91 µM [inhibitor, partial curve]
32 | Cc1ccsc1/C=N/NC(=O)Cc1cccn1C | inconclusive: 35.5 µM [inhibitor, single point]
33 | O=c1c2ccccc2c(-c2cccc(C(F)(F)F)c2)nn1-c1ccccc1 | inactive
34 | O=c1[nH]c2ccccc2n1CCCSc1cnc2ccccc2n1 | inconclusive: 39.8 µM [inhibitor, single point]
35 | CCC(C(=O)NCc1ccco1)n1nc(-c2ccc(OC)cc2)ccc1=O (centres undefined) | inconclusive: 39.8 µM [inhibitor, single point]
36 | NCCc1ccc(O)c(O)c1 | active: 14.1 µM
37 | O=C(C1=C[C@H](c2ccc3c(c2)OCO3)C[C@H](OCc2ccc(CO)cc2)O1)N1CCCCCCC1 | inconclusive: 10 µM [inhibitor, partial curve]
38 | O=C(/C=C/c1ccc2c(c1)OCO2)Nc1nc(-c2ccccc2)cs1 | active: 1.41 µM
39 | C[C@H](Cc1ccc(O)c(O)c1)[C@@H](C)Cc1ccc(O)c(O)c1 | active: 2.51 µM
40 | CC1=CC2(O)OCCN(CCO)C2=CC1=O (centres undefined) | active: 25.1 µM
41 | CC(=O)c1ccc(NC(=O)CC2Nc3cccc4cccc(c34)NC2=O)cc1 (centres undefined) | inactive
42 | Cc1sc2c(c1C)C(=O)NC(c1cccc(O)c1)N2 (centres undefined) | inconclusive: 0.1 µM [inhibitor, full curve, poor fit]
43 | O=C(Nc1ccccc1)C1=C[C@H](c2csc3ccccc23)C[C@H](OCc2ccc(CO)cc2)O1 | inconclusive: 39.8 µM [inhibitor, single point]
44 | COc1cc(C2C3C(=O)N(Cc4ccccc4)C(=O)C3ON2c2ccccc2)cc(OC)c1OC (centres undefined) | inactive
